# Measurements: the supplement of paper PMC6411743
# Chains of the proteins cited; added tags and fusions are not shown. Lines headed by an entry give the natural chain unless they say otherwise; changes in a name come on top.
# UniProt Q16881, whole entry: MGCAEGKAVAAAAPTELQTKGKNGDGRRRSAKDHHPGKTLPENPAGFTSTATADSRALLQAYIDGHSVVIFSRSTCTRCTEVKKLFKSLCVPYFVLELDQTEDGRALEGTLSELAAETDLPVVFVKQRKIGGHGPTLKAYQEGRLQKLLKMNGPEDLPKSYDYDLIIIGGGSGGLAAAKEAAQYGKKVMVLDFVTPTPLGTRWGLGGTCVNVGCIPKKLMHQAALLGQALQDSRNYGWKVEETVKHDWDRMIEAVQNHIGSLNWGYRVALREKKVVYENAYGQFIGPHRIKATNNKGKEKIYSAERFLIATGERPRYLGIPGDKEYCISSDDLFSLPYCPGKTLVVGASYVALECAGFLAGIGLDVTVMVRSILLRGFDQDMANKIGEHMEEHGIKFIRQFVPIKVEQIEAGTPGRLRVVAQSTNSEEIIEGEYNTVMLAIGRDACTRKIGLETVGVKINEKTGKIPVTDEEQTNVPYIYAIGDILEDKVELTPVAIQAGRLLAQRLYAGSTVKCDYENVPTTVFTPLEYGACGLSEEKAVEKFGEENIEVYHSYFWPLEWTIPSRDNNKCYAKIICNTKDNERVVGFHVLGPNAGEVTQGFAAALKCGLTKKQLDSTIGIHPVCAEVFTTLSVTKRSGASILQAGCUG
# UniProt Q9ULV3: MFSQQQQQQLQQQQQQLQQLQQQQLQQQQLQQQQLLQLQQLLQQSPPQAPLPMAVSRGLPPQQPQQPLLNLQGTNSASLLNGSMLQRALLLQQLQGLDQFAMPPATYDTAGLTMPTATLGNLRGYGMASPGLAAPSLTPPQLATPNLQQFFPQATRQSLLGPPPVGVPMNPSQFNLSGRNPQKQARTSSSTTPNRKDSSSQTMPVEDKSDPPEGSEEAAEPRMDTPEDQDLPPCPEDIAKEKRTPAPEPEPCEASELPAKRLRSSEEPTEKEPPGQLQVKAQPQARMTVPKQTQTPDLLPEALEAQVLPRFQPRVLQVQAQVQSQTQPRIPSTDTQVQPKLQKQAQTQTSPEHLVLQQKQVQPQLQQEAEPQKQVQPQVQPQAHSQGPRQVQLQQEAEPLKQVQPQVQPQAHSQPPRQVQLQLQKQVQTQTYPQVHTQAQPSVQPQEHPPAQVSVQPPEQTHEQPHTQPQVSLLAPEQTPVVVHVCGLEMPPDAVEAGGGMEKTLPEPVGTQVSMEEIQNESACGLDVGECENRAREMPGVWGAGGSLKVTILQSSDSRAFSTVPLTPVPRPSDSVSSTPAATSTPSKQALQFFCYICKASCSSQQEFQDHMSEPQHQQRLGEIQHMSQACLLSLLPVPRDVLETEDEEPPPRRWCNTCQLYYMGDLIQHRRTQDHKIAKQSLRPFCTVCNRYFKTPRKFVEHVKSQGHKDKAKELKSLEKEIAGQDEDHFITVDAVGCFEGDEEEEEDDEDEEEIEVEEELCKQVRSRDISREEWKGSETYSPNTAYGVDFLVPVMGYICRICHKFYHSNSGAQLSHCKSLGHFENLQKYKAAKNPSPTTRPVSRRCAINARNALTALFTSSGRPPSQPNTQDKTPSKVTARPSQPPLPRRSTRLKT
# UniProt P49821, whole entry: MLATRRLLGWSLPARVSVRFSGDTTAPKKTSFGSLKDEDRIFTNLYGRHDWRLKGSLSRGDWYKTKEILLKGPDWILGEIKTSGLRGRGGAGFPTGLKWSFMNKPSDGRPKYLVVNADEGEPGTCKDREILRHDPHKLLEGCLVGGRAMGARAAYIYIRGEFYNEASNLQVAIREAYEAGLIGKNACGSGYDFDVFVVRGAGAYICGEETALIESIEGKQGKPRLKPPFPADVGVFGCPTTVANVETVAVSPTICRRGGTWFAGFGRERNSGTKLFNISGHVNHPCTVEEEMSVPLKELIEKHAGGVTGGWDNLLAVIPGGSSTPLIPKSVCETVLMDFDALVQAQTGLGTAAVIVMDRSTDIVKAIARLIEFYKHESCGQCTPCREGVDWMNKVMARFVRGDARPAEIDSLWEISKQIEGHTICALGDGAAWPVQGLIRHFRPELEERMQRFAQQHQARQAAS
# UniProt Q6ZU35: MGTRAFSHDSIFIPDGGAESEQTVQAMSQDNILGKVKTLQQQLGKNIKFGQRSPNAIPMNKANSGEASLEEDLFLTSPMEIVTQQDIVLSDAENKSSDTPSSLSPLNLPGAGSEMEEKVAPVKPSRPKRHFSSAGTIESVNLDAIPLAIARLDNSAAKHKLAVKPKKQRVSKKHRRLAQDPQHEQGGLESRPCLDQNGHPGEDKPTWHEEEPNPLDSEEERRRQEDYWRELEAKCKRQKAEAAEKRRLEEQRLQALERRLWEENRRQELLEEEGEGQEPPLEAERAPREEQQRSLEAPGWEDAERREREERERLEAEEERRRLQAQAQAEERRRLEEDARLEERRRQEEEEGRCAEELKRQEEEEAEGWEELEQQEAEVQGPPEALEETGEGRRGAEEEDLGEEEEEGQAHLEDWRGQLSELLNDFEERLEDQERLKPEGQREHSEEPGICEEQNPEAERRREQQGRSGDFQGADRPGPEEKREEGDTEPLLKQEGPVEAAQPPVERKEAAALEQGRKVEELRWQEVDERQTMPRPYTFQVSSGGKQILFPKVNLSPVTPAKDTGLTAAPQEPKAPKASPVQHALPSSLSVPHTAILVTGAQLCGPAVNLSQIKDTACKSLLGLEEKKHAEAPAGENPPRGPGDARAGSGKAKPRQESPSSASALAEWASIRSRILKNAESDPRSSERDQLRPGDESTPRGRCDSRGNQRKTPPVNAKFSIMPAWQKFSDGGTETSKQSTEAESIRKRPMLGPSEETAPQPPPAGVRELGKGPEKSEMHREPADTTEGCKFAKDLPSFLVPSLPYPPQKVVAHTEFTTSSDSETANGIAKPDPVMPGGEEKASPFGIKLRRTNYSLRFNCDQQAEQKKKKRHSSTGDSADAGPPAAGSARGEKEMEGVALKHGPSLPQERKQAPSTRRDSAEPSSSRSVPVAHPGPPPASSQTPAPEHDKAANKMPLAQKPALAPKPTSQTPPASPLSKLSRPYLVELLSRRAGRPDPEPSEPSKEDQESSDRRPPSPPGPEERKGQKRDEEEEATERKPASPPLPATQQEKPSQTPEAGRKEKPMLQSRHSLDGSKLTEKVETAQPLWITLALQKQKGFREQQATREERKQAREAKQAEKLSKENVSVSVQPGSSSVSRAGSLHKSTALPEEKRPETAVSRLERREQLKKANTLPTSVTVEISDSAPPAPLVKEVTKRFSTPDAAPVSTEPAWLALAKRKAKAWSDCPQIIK
# UniProt Q96C57: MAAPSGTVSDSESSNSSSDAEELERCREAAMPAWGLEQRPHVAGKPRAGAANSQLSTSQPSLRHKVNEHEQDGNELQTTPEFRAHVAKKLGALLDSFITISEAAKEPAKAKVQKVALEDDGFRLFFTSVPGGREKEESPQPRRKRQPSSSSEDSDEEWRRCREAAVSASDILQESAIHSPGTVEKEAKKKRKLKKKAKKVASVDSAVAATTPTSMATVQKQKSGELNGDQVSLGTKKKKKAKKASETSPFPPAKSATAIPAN
# UniProt P55786: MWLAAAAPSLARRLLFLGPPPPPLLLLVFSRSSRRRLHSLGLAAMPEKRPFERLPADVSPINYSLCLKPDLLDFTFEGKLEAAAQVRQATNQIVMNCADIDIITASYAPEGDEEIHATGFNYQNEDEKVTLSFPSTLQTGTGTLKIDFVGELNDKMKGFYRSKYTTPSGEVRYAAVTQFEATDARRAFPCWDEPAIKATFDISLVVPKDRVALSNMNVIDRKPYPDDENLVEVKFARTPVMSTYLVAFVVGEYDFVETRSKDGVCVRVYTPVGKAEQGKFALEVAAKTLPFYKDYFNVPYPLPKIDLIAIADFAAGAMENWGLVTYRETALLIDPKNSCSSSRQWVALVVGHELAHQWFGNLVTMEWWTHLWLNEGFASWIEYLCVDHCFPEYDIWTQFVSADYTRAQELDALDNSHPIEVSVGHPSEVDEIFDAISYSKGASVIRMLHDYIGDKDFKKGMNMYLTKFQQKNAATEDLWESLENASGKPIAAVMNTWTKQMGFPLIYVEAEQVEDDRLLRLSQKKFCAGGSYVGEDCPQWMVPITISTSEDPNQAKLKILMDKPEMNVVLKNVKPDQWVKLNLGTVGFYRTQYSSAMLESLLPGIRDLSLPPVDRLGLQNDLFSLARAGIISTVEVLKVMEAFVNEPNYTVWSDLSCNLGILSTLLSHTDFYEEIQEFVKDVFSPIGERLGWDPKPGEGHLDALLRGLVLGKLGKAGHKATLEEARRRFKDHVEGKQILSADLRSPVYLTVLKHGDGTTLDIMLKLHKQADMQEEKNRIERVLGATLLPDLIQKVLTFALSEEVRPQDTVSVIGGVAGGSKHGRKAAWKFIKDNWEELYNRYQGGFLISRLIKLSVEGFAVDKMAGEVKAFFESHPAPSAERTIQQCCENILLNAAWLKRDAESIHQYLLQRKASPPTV
# UniProt O00255, whole entry: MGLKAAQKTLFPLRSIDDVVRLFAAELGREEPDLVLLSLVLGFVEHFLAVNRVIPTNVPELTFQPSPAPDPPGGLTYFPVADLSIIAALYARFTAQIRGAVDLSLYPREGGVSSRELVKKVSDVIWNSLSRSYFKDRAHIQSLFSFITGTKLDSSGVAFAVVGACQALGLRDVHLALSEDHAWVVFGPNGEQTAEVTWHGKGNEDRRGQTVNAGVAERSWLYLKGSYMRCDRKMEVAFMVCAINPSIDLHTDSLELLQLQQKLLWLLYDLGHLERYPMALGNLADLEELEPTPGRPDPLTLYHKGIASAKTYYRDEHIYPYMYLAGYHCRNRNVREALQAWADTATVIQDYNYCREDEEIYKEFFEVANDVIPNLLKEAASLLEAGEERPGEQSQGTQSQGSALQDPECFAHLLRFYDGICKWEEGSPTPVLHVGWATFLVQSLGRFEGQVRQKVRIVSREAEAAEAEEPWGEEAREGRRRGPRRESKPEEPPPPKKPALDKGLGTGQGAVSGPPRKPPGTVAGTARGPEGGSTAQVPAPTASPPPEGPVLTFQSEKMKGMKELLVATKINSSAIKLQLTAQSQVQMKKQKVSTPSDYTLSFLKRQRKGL
# UniProt Q8N9N8: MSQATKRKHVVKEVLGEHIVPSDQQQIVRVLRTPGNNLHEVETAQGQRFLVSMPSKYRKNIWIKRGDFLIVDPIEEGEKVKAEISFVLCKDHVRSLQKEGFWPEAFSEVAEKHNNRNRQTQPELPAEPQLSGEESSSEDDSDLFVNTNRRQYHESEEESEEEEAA
# UniProt P14621: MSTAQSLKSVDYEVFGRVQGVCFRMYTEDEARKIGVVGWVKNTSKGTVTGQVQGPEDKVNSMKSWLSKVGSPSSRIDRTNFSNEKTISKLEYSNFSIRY
# UniProt Q8N465: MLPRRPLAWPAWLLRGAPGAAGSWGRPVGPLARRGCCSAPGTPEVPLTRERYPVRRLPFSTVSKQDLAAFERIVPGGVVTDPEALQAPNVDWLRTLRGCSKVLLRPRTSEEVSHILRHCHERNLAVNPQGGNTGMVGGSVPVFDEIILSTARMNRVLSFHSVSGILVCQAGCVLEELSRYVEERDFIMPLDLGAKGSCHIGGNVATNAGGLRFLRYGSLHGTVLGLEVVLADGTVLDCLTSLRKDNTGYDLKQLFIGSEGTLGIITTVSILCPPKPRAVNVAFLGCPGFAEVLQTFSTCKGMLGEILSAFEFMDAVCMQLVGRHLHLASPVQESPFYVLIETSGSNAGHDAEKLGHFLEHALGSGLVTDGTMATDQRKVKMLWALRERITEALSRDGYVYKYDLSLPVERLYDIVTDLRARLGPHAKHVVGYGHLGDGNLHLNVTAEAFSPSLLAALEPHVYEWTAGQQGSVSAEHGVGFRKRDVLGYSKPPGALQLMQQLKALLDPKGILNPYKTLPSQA
# UniProt O75347: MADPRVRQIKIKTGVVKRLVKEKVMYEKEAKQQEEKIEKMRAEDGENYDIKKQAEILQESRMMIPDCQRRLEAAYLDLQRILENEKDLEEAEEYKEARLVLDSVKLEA
# UniProt Q8N4H5: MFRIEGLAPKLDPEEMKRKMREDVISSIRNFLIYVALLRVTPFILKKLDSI
# UniProt Q6DD88: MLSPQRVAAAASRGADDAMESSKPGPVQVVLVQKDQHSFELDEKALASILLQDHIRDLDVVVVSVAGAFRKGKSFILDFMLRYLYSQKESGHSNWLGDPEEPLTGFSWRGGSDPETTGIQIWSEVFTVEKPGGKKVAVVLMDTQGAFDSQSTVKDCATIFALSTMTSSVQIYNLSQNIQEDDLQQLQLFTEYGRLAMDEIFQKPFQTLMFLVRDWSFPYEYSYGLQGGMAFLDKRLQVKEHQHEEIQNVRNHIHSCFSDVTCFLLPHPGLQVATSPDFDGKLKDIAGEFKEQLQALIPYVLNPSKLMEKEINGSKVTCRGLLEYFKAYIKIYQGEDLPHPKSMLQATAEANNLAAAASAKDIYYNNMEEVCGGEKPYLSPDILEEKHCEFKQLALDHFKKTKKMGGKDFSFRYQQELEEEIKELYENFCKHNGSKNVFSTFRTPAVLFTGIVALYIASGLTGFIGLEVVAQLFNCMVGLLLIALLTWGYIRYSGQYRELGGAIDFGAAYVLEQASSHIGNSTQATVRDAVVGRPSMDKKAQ
# ± gives the standard deviation of the averaged measurements. This is a selection; strong and weak results do not stand in their true shares.
# Compound: Nc1ncnc2c1ncn2[C@@H]1O[C@H](COP(=O)(O)OP(=O)(O)NP(=O)(O)O)[C@@H](O)[C@H]1O [adenylyl imidodiphosphate]
# Experiment: NP40-soluble protein abundance relative to vehicle (solubility fold change) (ratio); higher = more soluble protein in presence of AMP-PNP
# Procedure, shortened: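 Each value is a fold change relative to the detergent-processed vehicle, calculated per replicate from vsn-normalised intensities. Jurkat crude lysate received eight concentrations (0.1 to 10 mM) for 10 min at room temperature and 3 min at 37 °C, then was solubilised in 0.8% NP40 with benzonase (60 min, 4 °C). The ultracentrifuged supernatant was TMT-labelled and run by LC-MS/MS in three independent experiments.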
Target,NP40-soluble protein abundance (concentration: 1mM),NP40-soluble protein abundance (concentration: 2mM),NP40-soluble protein abundance (concentration: 4mM),NP40-soluble protein abundance (concentration: 6mM),NP40-soluble protein abundance (concentration: 8mM),NP40-soluble protein abundance (concentration: 10mM)
G3V1S4 and related entries (UniProt Q9Y324),1 ± 0.0086,0.988 ± 0.022,0.972 ± 0.022,1.01 ± 0.062,1.05 ± 0.046,1.07 ± 0.031
F8W809 and related entries (UniProt Q16881),0.9866 ± 0.0092,0.912 ± 0.093,0.956 ± 0.017,0.977 ± 0.017,0.99 ± 0.015,0.949 ± 0.022
E7EQY1 and related entries (UniProt Q96C01),1.01 ± 0.036,1.11 ± 0.07,0.988 ± 0.082,0.991 ± 0.062,0.958 ± 0.062,0.968 ± 0.11
F5H2X7 and related entries (UniProt Q9ULV3),1.06 ± 0.048,1.12 ± 0.027,1.05 ± 0.039,1.08 ± 0.037,1.02 ± 0.059,1.07 ± 0.069
F5H1D6 and related entries (UniProt Q07864),1.01 ± 0.013,0.98 ± 0.02,1.02 ± 0.024,0.9648 ± 0.0087,0.9483 ± 0.0083,0.952 ± 0.014
G3V0I5 and related entries (UniProt P49821),0.948 ± 0.029,0.929 ± 0.035,0.966 ± 0.08,1.01 ± 0.027,1.02 ± 0.04,1.02 ± 0.13
E7EQT4 and related entries (UniProt Q9UKV3),1.05 ± 0.061,1.1 ± 0.021,1.05 ± 0.07,1.03 ± 0.09,0.972 ± 0.04,1.04 ± 0.069
E7ETB3 and related entries (UniProt Q9ULA0),0.985 ± 0.032,0.937 ± 0.051,0.967 ± 0.015,0.926 ± 0.034,0.962 ± 0.044,0.914 ± 0.085
E9PGT3 and related entries (UniProt Q15418),1.012 ± 0.0059,0.947 ± 0.11,0.997 ± 0.043,0.958 ± 0.03,0.979 ± 0.015,0.939 ± 0.026
E9PI90 and related entries (UniProt Q9H061),0.969 ± 0.054,0.881 ± 0.071,0.958 ± 0.035,0.962 ± 0.02,0.982 ± 0.019,0.924 ± 0.029
E7ET07 and related entries (UniProt Q9NXR8),1.023 ± 0.0073,1.02 ± 0.013,0.995 ± 0.021,1.01 ± 0.0076,1.03 ± 0.029,1.008 ± 0.0054
F5H1N7 and related entries (UniProt Q6ZU35),1.0957 ± 0.00043,1.1 ± 0.089,1.07 ± 0.063,1.1 ± 0.042,1.07 ± 0.043,1.12 ± 0.036
F5H7W8 and related entries (UniProt Q96C57),1.17 ± 0.015,1.26 ± 0.088,1.25 ± 0.058,1.29 ± 0.047,1.34 ± 0.062,1.37 ± 0.12
E9PLK3 and related entries (UniProt P55786),0.954 ± 0.033,0.847 ± 0.1,0.941 ± 0.022,0.913 ± 0.026,0.941 ± 0.024,0.881 ± 0.02
E7ER02 and related entries (UniProt Q9NZJ5),1 ± 0.024,1.02 ± 0.044,1 ± 0.017,0.994 ± 0.022,0.97 ± 0.039,0.999 ± 0.011
E7EQI7 and related entries (UniProt Q12768),0.998 ± 0.032,0.953 ± 0.036,0.994 ± 0.031,0.977 ± 0.04,1 ± 0.029,0.97 ± 0.019
E7EQR4 and related entries (UniProt P15311),1.02 ± 0.026,1.03 ± 0.019,0.983 ± 0.045,0.99 ± 0.026,0.966 ± 0.026,0.99 ± 0.081
F5GZ82 and related entries (UniProt Q9NP50),0.965 ± 0.054,0.972 ± 0.014,0.963 ± 0.032,0.949 ± 0.029,0.949 ± 0.019,0.989 ± 0.041
E7EN32 and related entries (UniProt O00255),1.06 ± 0.017,1.1 ± 0.024,1.16 ± 0.036,1.25 ± 0.03,1.25 ± 0.047,1.31 ± 0.026
E9PKC0 and related entries (UniProt Q6IQ23),1.02 ± 0.03,1.03 ± 0.019,1.04 ± 0.037,1.02 ± 0.036,1.02 ± 0.033,1.07 ± 0.016
E9PLI6 and related entries (UniProt Q8N9N8),0.954 ± 0.02,1 ± 0.05,0.977 ± 0.036,0.987 ± 0.024,0.998 ± 0.03,1.03 ± 0.024
F2Z2Y3 and related entries (UniProt Q9H8W3),1.039 ± 0.0016,1.02 ± 0.0023,1.023 ± 0.0026,1.04 ± 0.062,1.01 ± 0.012,1.03 ± 0.026
E9PF46 and related entries (UniProt P14621),1.006 ± 0.0073,1.03 ± 0.032,1.07 ± 0.055,1.08 ± 0.06,1.06 ± 0.037,1.1 ± 0.038
E9PJE9 and related entries (UniProt P78410),1 ± 0.017,1.02 ± 0.021,1.01 ± 0.021,0.988 ± 0.021,0.965 ± 0.02,1 ± 0.063
F8WCF9 and related entries (UniProt Q8N465),0.983 ± 0.03,1.01 ± 0.012,0.992 ± 0.01,1.04 ± 0.035,1.02 ± 0.032,1.03 ± 0.02
E5RIW3 and related entries (UniProt O75347),1.11 ± 0.022,1.1 ± 0.06,1.05 ± 0.027,0.995 ± 0.05,0.964 ± 0.012,0.939 ± 0.1
F8W8Z9 and related entries (UniProt Q8N4H5),0.914 ± 0.056,0.861 ± 0.02,0.86 ± 0.055,0.92 ± 0.026,0.914 ± 0.078,0.871 ± 0.13
E9PF16 and related entries (UniProt Q96CM8),0.999 ± 0.037,0.948 ± 0.064,1.018 ± 0.0099,0.983 ± 0.025,1.03 ± 0.046,0.98 ± 0.05
F5H6I7 and related entries (UniProt Q6DD88),1.023 ± 0.008,0.981 ± 0.059,0.9673 ± 0.0048,0.989 ± 0.012,0.9754 ± 0.0077,0.967 ± 0.048
G3V1P3 and related entries (UniProt Q969J3+G3V1P3),0.942 ± 0.042,0.988 ± 0.058,0.965 ± 0.027,0.974 ± 0.055,0.997 ± 0.028,0.982 ± 0.038

# Part of the list above, set out differently:
Target | NP40-soluble protein abundance (concentration: 1mM) | NP40-soluble protein abundance (concentration: 2mM) | NP40-soluble protein abundance (concentration: 4mM) | NP40-soluble protein abundance (concentration: 6mM) | NP40-soluble protein abundance (concentration: 8mM) | NP40-soluble protein abundance (concentration: 10mM)
E7ETB3 and related entries (UniProt Q9ULA0) | 0.985 ± 0.032 | 0.937 ± 0.051 | 0.967 ± 0.015 | 0.926 ± 0.034 | 0.962 ± 0.044 | 0.914 ± 0.085
E9PI90 and related entries (UniProt Q9H061) | 0.969 ± 0.054 | 0.881 ± 0.071 | 0.958 ± 0.035 | 0.962 ± 0.02 | 0.982 ± 0.019 | 0.924 ± 0.029
